Several values for one entry are separate records, joined by “and”; a condition that tells them apart may be missing. Identical values can stand only once. The campaign covered roughly 340,000 compounds. About 6,200 (1.8%) were called active. The shares of active, inactive and inconclusive entries below differ from those in the screen. Calls follow the shape of the dose curve; as a rule, active = well fitted activation curve with a large enough effect; inconclusive = small, poorly fitted or top-dose-only effect; inactive = no such curve, though single readings can be large or run the other way. A potency beside an inconclusive call is a rough fit, not a confirmed value.
Test: A quantitative high throughput screen for small molecules that induce DNA re-replication in SW480 colon adenocarcinoma cells. Also: nearly all actives have a fitted effect of over 55% in size. As to re-replication activation: % of control where 0% means no effect.
Settings: Hoechst DNA content imaging, 48 h; re-replication activation: at 46.1 µM (top of the series)
Outline: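 DNA re-replication was detected as more nuclei of elevated Hoechst intensity after 48 hr exposure to compound (23 nL pinned per well of 250 cells).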
Potency is read from the fitted curve at half-maximal effect.

Row | SMILES | Potency | re-replication activation
1 | Nc1ccc(C(=O)NCC(=O)O)cc1 | inactive and inconclusive: 20 µM [activator, single point] | –
2 | Cc1ccc(S(=O)(=O)N(C)CCCC(=O)Nc2ccc(C)cc2C)cc1 | inconclusive: 0.731 µM [activator, full curve, poor fit] | –
3 | CCOC(=O)c1ccc(S(=O)(=O)NNC(=O)Cc2csc(C)n2)cc1 | inconclusive: 29.1 µM [activator, single point] | –
4 | Cc1cc(C)c2c(N)c(C(=O)Nc3c(C)n(C)n(-c4ccccc4)c3=O)sc2n1 | inconclusive: 23.1 µM [activator, single point] | –
5 | CCOC(=O)c1cnc2c(C)c(Cl)ccc2c1N1CCN(CC)CC1 | – | inactive: 5.34%
6 | CCN1CCN(C(=S)NC(C)c2ccccc2)CC1 (stereo unspecified) | – | inactive: 0.884%
7 | CC(C)n1cnc2c(NCc3ccccc3)cc(N[C@H](C)CO)cc21 | active: 0.651 µM | –
8 | COC(=O)c1cccc(NC(=O)c2cccs2)c1C | – | inactive: -3.82%
9 | N=c1nc2n(cc1F)C1OC(CO)C(O)C1O2 (stereo unspecified) | inconclusive: 0.291 µM [activator, full curve, poor fit] | –
10 | COc1ccc(C=C2C=C(C(C)(C)C)C(=O)C(C(C)(C)C)=C2)cc1OC | inconclusive: 29.1 µM [activator, single point] | –
11 | O=C(N/N=C/c1ccc(-c2ccc([N+](=O)[O-])cc2)o1)C(O)c1ccccc1 (stereo unspecified) | inconclusive: 4.11 µM [activator, full curve, poor fit] | –
12 | CC1Cc2ccccc2N1C(=O)CSc1nnnn1Cc1ccccc1 (stereo unspecified) | inconclusive: 32.6 µM [activator, partial curve, poor fit] | –
13 | CC(=O)Nc1ccc(-c2ccc(NC(C)=O)cc2)cc1 | – | inactive: 3.58%
14 | Cn1c(SCC(=O)Nc2ccccc2-c2ccccc2)nnc1-c1ccco1 | inconclusive: 6.51 µM [activator, partial curve, poor fit] | –
15 | CCc1cccc(N(C(=O)c2csnn2)C(C(=O)NC2CCCCC2)c2ccncc2)c1 (stereo unspecified) | – | inactive: -3.48%
16 | CC(=O)c1cc(CN2CCC(C(=O)Nc3ccc(-n4nc(C)cc4C)cc3)CC2)cs1 | – | inactive: 2.82%
17 | O=C(O)c1ccccc1C(=O)OCCCCOC(=O)c1ccccc1C(=O)O | – | inactive: -3.78%
18 | CC1=CC(=O)[C@@H](OC(=O)Nc2ccc(C)cc2)[C@@H](c2ccccc2Br)N1C | inconclusive: 0.0052 µM [activator, full curve, poor fit] | –
19 | COc1cccc(C2C(C#N)=C(N)SC(c3ccccc3)C2[N+](=O)[O-])c1 (stereo unspecified) | – | inactive: -5.36%
20 | Cc1[nH]n(-c2ccccc2)c(=O)c1/C=N/NC(=O)c1cccc(F)c1 | inconclusive: 29.1 µM [activator, single point] | –
21 | CC(C(=O)Nc1ncc([N+](=O)[O-])s1)N1C(=O)c2ccccc2S1(=O)=O (stereo unspecified) | inconclusive: 29.1 µM [activator, single point] | –
22 | O=c1oc2cc(Oc3ccc(C(F)(F)F)cc3[N+](=O)[O-])ccc2c2c1CCC2 | – | inactive: -0.0984%
23 | O=C(NCc1ccco1)NC(=O)c1csc([N+](=O)[O-])c1 | – | inactive: -1.5% [at 9.22 µM]
24 | Cc1nc2c3cc(Cl)ccc3n(CCN3CCOCC3)c2s1 | inconclusive: 18.4 µM [activator, single point] | –

Row | SMILES | Potency | re-replication activation
25 | COc1ccc(/C=C/C(=O)C2(O)CCCCC2)cc1OC | inconclusive: 18.4 µM [activator, single point] | –
26 | Cc1sc(NC(=S)NC(=O)CCc2ccccc2)c(C(N)=O)c1C | active: 0.291 µM | –
27 | CN1CCN(CCCNC(=O)c2ccc3c(Cl)c4c(nc3c2)CCCC4)CC1 | inconclusive: 14.6 µM [activator, partial curve, poor fit] | –
28 | COc1ccc(NC(=S)NC(C)Cc2cccs2)cc1 (stereo unspecified) | – | inactive: -5.62%
29 | Cc1ccc2sc(N(CCCN(C)C)C(=O)CCS(=O)(=O)c3ccccc3)nc2c1C | inconclusive: 6.51 µM [activator, single point] | –
30 | O=C(CSc1nnc(NC(=O)c2ccco2)s1)Nc1ccccc1F | inconclusive: 0.0259 µM [activator, full curve, poor fit] | –
31 | Cc1ccc(NC(=O)C2C3C=CC4(O3)C2C(=O)N(CCCN2CCCCC2)C4C(=O)NC2CCCCC2)cc1Cl (stereo unspecified) | inconclusive: 18.4 µM [activator, single point] | –
32 | Oc1ccc(/C=N/Nc2nc(-c3cccnc3)nc3ccccc23)c(O)c1 | inconclusive: 16.4 µM [activator, single point] | –
33 | CC1CCCCC12NC(=O)N(Cc1cc(=O)n3ccsc3n1)C2=O (stereo unspecified) | inconclusive: 1.84 µM [activator, full curve] | –
34 | Cc1ccccc1NC(=O)c1sc(Cl)nc1C | – | inactive: 5.31%
35 | CC(C)(C)c1cnnn1-c1ccc(C(=O)CCl)cc1 | inconclusive: 20.6 µM [activator, single point] | –
36 | CCCCN(C(=O)CSc1cc(C)c2ccccc2n1)c1c(N)n(Cc2ccccc2)c(=O)[nH]c1=O | inconclusive: 32.6 µM [activator, partial curve, poor fit] | –
37 | O=c1cc(CN2CCN(c3ccccc3)CC2)c2c(ccc3ccccc32)o1 | – | inactive: 2.06%
38 | O=C(Nn1nnnc1Nc1ccccc1)C12CC3CC(CC(C3)C1)C2 | inconclusive: 25.9 µM [activator, partial curve, poor fit] | –
39 | CCOc1ccc(S(=O)(=O)Nc2ccc(C(=O)NCCCN3CCOCC3)cc2)cc1 | inconclusive: 6.51 µM [activator, full curve, poor fit] | –
40 | COCCCNC(=S)N1CCN(c2nc(C)nc3sc4c(c23)CCCC4)CC1 | – | inactive: 1.47%
41 | O=C(O)CSc1nnc(-c2ccc(Cl)cc2Cl)n1-c1ccccc1 | inconclusive: 0.231 µM [activator, single point] | –
42 | COc1cc(-c2cn[nH]c2N)cc(OC)c1OC | inconclusive: 16.4 µM [activator, single point] | –
43 | CSc1ccc(NC(=O)Nc2cc(C)ccn2)cc1 | – | inactive: -9.7%
44 | CCOC(=O)/C=C/C(=O)Nc1nccs1 | inconclusive: 23.1 µM [activator, single point] | –
45 | C/C(=N\Nc1cccc2cccnc12)c1ccc(N)cc1 | inconclusive: 20.6 µM [activator, single point] | –
46 | O=c1c2ccccc2nc2n1CCC2O (stereo unspecified) | – | inactive: -0.681%
47 | O=C(Nc1ccccc1)NN(C(=O)CCl)c1ccccc1 | active: 5.8 µM | –
48 | COC(=O)[C@H](C)N(Cc1ccc(Cl)c(Cl)c1)S(=O)(=O)CCNC1CCCC1 | inconclusive: 2.59 µM [activator, single point] | –

Row | SMILES | Potency | re-replication activation
49 | OCCN1CCN(CCCN2c3ccccc3Sc3ccc(Cl)cc32)CC1 | inactive and inconclusive: 25.1 µM [activator, single point] and inconclusive: 29.1 µM [activator, single point] | –
50 | O=C1NC2c3ccccc3C(=O)N2c2c1cnn2-c1ccccc1 (stereo unspecified) | inconclusive: 29.1 µM [activator, single point] | –
51 | CC1C(=O)N2CCCc3cc(NC(=O)C(=O)NCc4cccnc4)cc1c32 (stereo unspecified) | – | inactive: -2.11%
52 | C=CCOc1c(Cl)cc(CNCCCN2CCOCC2)cc1OC | inconclusive: 29.1 µM [activator, single point] | –
53 | O=C(N/N=C/c1ccc(N2CCOCC2)o1)c1cccc([N+](=O)[O-])c1 | inconclusive: 2.91 µM [activator, partial curve] | –
54 | COc1ccc(/C=N/Nc2nonc2N)c(OC)c1 | inconclusive: 6.51 µM [activator, single point] | –
55 | Cc1cccc(C)c1NC(=O)COC(=O)c1ccc2[nH]c3c(c2c1)CCCC3 | inconclusive: 23.1 µM [activator, single point] | –
56 | O=C(O)CC1NC(=S)N(c2ccccc2)C1=O (stereo unspecified) | inconclusive: 13 µM [activator, partial curve, poor fit] | –
57 | Oc1cccc(Nc2nc(O)c(/C=C3\C=Nc4ccccc43)s2)c1 | inconclusive: 18.4 µM [activator, single point] | –
58 | Nc1c(C(=O)N/N=C/c2ccc(OCc3ccccc3)cc2)cnn1-c1ccccc1 | inconclusive: 2.59 µM [activator, partial curve, poor fit] | –
59 | CC(=O)N1CCc2c(sc(NC(=O)c3ccc([N+](=O)[O-])o3)c2C#N)C1 | active: 2.31 µM | –
60 | O=C(O)CCCC(=O)NCc1c(Cl)cccc1Sc1ccc(Cl)cc1 | inconclusive: 20.6 µM [activator, single point] | –
61 | Cc1ccc(S(=O)(=O)N2[C@@H](c3ccc(Br)cc3)C(C(=O)O)=CC[C@H]2c2cccc(C)c2)cc1 | inconclusive: 29.1 µM [activator, single point] | –
62 | CCNS(=O)(=O)c1ccc(Br)c(OC)c1 | – | inactive: -4.91%
63 | COc1ccc2nc(N/C(N)=N/C(=S)Nc3ccccc3)nc(C)c2c1 | – | inactive: 2.7%
64 | C=C1CCN(CC(=O)OC)S(=O)(=O)c2ccccc21 | – | inactive: -14.3%
65 | CC(C)C(C(=O)NC1=NCCS1)c1ccc(Cl)cc1 (stereo unspecified) | – | inactive: 8.31%
66 | Cc1ccnc(Nc2nc(-c3sc(C)nc3C)cs2)c1 | inconclusive: 29.1 µM [activator, single point] | –
67 | Cc1ccc(C(=O)OCC(=O)N(C)c2c(N)n(Cc3ccccc3)c(=O)[nH]c2=O)s1 | inconclusive: 5.8 µM [activator, single point] | –
68 | O=C(OCC(=O)N1CCCCC1)c1ccc2c(c1)C(=O)N(Cc1ccco1)C2=O | – | inactive: -18.4%
69 | COc1ccccc1C=NNc1ccc([N+](=O)[O-])cn1 | – | inactive: -1.64%
70 | Cc1ccccc1C(=O)N1CCC(C(=O)NN2C(=O)NC3(CCCCC3)C2=O)CC1 | – | inactive: 6.44%
71 | CCCn1c(=O)c(C(=O)N/N=C/c2ccccc2F)c(O)c2ccccc21 | inconclusive: 32.6 µM [activator, partial curve, poor fit] | –

— PubChem BioAssay AID624297 (National Center for Advancing Translational Sciences (NCATS), 2012)
